Results from one PubChem assay

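Genome-wide siRNA knockdown in TC32 Ewing sarcoma cells, comparing luciferase light from an NR0B1-promoter reporter with a CMV-promoter reporter 48 hours after transfection. Each siRNA was applied at 20 nM. A z-score of the log NR0B1-over-CMV signal, less the median of siRNAs with the same seed; more negative means a stronger specific loss of the NR0B1 reporter.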

The strongest results of the screen are mostly left out here. Sequences are the guide (antisense) strand, without overhang.

With UUAGCAUAUGAGUAAUUCC against TLR7 the assay gave seed-corrected z-score -0.1163.
With UACCUUAUCGUAGAUCCUG against ACSL5 the assay gave seed-corrected z-score 0.3428.
With UUGAUAGCGAUCAAAGUCC against PLCG1 the assay gave seed-corrected z-score -0.002033.
With UGUAUUUUUAGGGUCAUGG against LOC727978 the assay gave seed-corrected z-score -0.5308.
With UCUUUGACAACAGAAGGCC against CCDC136 the assay gave seed-corrected z-score 0.836.
With AAUCGUAUGCUACUCUUCC against LOC285095 the assay gave seed-corrected z-score -0.4784.
With UUCUGUGGUAGCCUUGUCC against MS4A15 the assay gave seed-corrected z-score -0.07468.
With UAUGUGAUAUCCCUUGUAC against RFPL4A the assay gave seed-corrected z-score 0.8977.
With UCAAAGACCAGGCGGUUUU against ALG1L2 the assay gave seed-corrected z-score 0.8029.
With UCUUAGAAGAUUGAAGGCC against LOC644554 the assay gave seed-corrected z-score 2.093.
With UUCGCAUCCAGAAGUAGAC against NOL11 the assay gave seed-corrected z-score -0.04656.
With UAGAGGAAUAACGAAGUGU against TAAR5 the assay gave seed-corrected z-score -1.08.
With UUUCAUAUACUCCUCAUCA against FUT11 the assay gave seed-corrected z-score 0.8412.
With UACCCUCAGAGUCAAGUCG against TRIM77 the assay gave seed-corrected z-score 1.462.
With UUUCUUUGAACCAAUCUGU against TSPAN3 the assay gave seed-corrected z-score 0.4726.
With AAGUGAGUUACAGAACUCC against SLC38A2 the assay gave seed-corrected z-score 0.3115.
With UCAAUGUCCAUGCACAGGG against FBN3 the assay gave seed-corrected z-score 0.4429.
With UGCGCUUCAGCAGAUAGCC against RASAL1 the assay gave seed-corrected z-score 0.02667.
With UCGAAGGACACGUUGUUGC against GPR132 the assay gave seed-corrected z-score -0.4972.
With UUCACGUAAUUUUAACAGC against CNTRL the assay gave seed-corrected z-score 0.611.
With UAACUUUGGUCUGUCAUCU against CYB5A the assay gave seed-corrected z-score -0.1304.
With UCAUGACAUCCGUUGAGCC against NATD1 the assay gave seed-corrected z-score -1.466.
With UAAGUUUUGGAUCCACCAC against BOD1 the assay gave seed-corrected z-score 0.1324.
With UUCUAAACCAAUCCGUCGC against SNX4 the assay gave seed-corrected z-score -0.5311.
With UUCUCGAUCACCUCGACCU against SH3PXD2B the assay gave seed-corrected z-score 0.3504.
With UAAGUCCAGACACCAUACC against NRP1 the assay gave seed-corrected z-score 0.6275.
With UUCUGCACAAUUCGCAUUC against DAP the assay gave seed-corrected z-score 0.297.
With UAAGCUUAACUCCAGGAGC against SPINK2 the assay gave seed-corrected z-score 0.8137.
With UGCUCUACUGGUUAACAUC against SSC4D the assay gave seed-corrected z-score 0.9094.
With UGUCUUUCCAUAGUUAAAG against ZNF253 the assay gave seed-corrected z-score -0.096.
With UUCACUAAGACCAUAGUGG against SERPINA7 the assay gave seed-corrected z-score 0.6993.
With UUUGGGUCAUCUGCAACAG against AFAP1L2 the assay gave seed-corrected z-score -0.3337.
With UAAGAAUUGAGGAUGAGCC against ZSCAN18 the assay gave seed-corrected z-score 0.06523.

From PubChem BioAssay record AID1159506 (NCATS, 2015).